# Laboratory results as given in the supplement of paper PMC8728848.
# This is one part of the list.
# What was measured:
# Assay in all cases: glycan array binding signal (z-score within array); higher = stronger binding
# Conditions in all cases: glycan notation: IUPAC condensed, linker removed
# [1] = target: Fuc(a1-2)Gal6S(b1-3)GlcNAc6S
# How it was run: (§1)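 Glycan array binding is given as a within-array Z-score, which can be read as non-binding when negative. The arrays, 3228 of them, came from the Consortium for Functional Glycomics database and were retained only where the protein sequence was available. Z-scores were averaged across arrays of the same protein sequence at different concentrations or buffers and across linkers.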
# Fuc(a1-2)Gal6S(b1-4)Glc = target: Fuc(a1-2)Gal6S(b1-4)Glc
# How it was run: as §1
# [2] = target: Fuc(a1-2)Gal6S(b1-4)Glc6S
# How it was run: as §1
# Fuc(a1-2)[Gal(a1-3)]Gal = target: Fuc(a1-2)[Gal(a1-3)]Gal
# How it was run: as §1
# [3] = target: Fuc(a1-2)[Gal(a1-3)]Gal(b1-3)GalNAc
# How it was run: as §1
# [4] = target: Fuc(a1-2)[Gal(a1-3)]Gal(b1-3)GalNAc(b1-3)Gal(a1-4)Gal(b1-4)Glc
# How it was run: as §1
# [5] = target: Fuc(a1-2)[Gal(a1-3)]Gal(b1-3)GlcNAc
# How it was run: as §1
# [6] = target: Fuc(a1-2)[Gal(a1-3)]Gal(b1-3)GlcNAc(b1-2)Man(a1-3)[Fuc(a1-2)[Gal(a1-3)]Gal(b1-3)GlcNAc(b1-2)Man(a1-6)]Man(b1-4)GlcNAc(b1-4)GlcNAc
# How it was run: as §1
# [7] = target: Fuc(a1-2)[Gal(a1-3)]Gal(b1-3)GlcNAc(b1-2)Man(a1-3)[Fuc(a1-2)[Gal(a1-3)]Gal(b1-3)GlcNAc(b1-2)Man(a1-6)]Man(b1-4)GlcNAc(b1-4)[Fuc(a1-6)]GlcNAc
# How it was run: as §1
# [8] = target: Fuc(a1-2)[Gal(a1-3)]Gal(b1-3)GlcNAc(b1-3)GalNAc
# How it was run: as §1
# [9] = target: Fuc(a1-2)[Gal(a1-3)]Gal(b1-3)GlcNAc(b1-6)GalNAc
# How it was run: as §1
# [10] = target: Fuc(a1-2)[Gal(a1-3)]Gal(b1-4)Glc
# How it was run: as §1
# [11] = target: Fuc(a1-2)[Gal(a1-3)]Gal(b1-4)GlcNAc
# How it was run: as §1
# [12] = target: Fuc(a1-2)[Gal(a1-3)]Gal(b1-4)GlcNAc(b1-2)Man
# How it was run: as §1
# [13] = target: Fuc(a1-2)[Gal(a1-3)]Gal(b1-4)GlcNAc(b1-2)Man(a1-3)[Fuc(a1-2)[Gal(a1-3)]Gal(b1-4)GlcNAc(b1-2)Man(a1-6)]Man(b1-4)GlcNAc(b1-4)GlcNAc
# How it was run: as §1
# [14] = target: Fuc(a1-2)[Gal(a1-3)]Gal(b1-4)GlcNAc(b1-2)Man(a1-3)[Fuc(a1-2)[Gal(a1-3)]Gal(b1-4)GlcNAc(b1-2)Man(a1-6)]Man(b1-4)GlcNAc(b1-4)[Fuc(a1-6)]GlcNAc
# How it was run: as §1
# [15] = target: Fuc(a1-2)[Gal(a1-3)]Gal(b1-4)GlcNAc(b1-3)GalNAc
# How it was run: as §1
# [16] = target: Fuc(a1-2)[Gal(a1-3)]Gal(b1-4)GlcNAc(b1-3)[Fuc(a1-2)[Gal(a1-3)]Gal(b1-4)GlcNAc(b1-6)]GalNAc
# How it was run: as §1
# [17] = target: Fuc(a1-2)[Gal(a1-3)]Gal(b1-4)GlcNAc(b1-6)GalNAc
# How it was run: as §1
# [18] = target: Fuc(a1-2)[Gal(a1-3)]Gal(b1-4)[Fuc(a1-3)]Glc
# How it was run: as §1
# [19] = target: Fuc(a1-2)[Gal(a1-3)]Gal(b1-4)[Fuc(a1-3)]GlcNAc
# How it was run: as §1
# [20] = target: Fuc(a1-2)[Gal(a1-3)]Gal(b1-4)[Fuc(a1-3)]GlcNAc(b1-3)GalNAc
# How it was run: as §1
# [21] = target: Fuc(a1-2)[Gal(a1-4)]Gal(b1-4)GlcNAc
# How it was run: as §1
# [22] = target: Fuc(a1-2)[GalNAc(a1-3)]Gal
# How it was run: as §1
# [23] = target: Fuc(a1-2)[GalNAc(a1-3)]Gal(b1-3)GalNAc(a1-3)[Fuc(a1-2)]Gal(b1-4)GlcNAc
# How it was run: as §1
# [24] = target: Fuc(a1-2)[GalNAc(a1-3)]Gal(b1-3)GalNAc(b1-3)Gal(a1-4)Gal(b1-4)Glc
# How it was run: as §1
# [25] = target: Fuc(a1-2)[GalNAc(a1-3)]Gal(b1-3)GlcNAc
# How it was run: as §1
# [26] = target: Fuc(a1-2)[GalNAc(a1-3)]Gal(b1-3)GlcNAc(b1-2)Man(a1-3)[Fuc(a1-2)[GalNAc(a1-3)]Gal(b1-3)GlcNAc(b1-2)Man(a1-6)]Man(b1-4)GlcNAc(b1-4)GlcNAc
# How it was run: as §1
# [27] = target: Fuc(a1-2)[GalNAc(a1-3)]Gal(b1-3)GlcNAc(b1-2)Man(a1-3)[Fuc(a1-2)[GalNAc(a1-3)]Gal(b1-3)GlcNAc(b1-2)Man(a1-6)]Man(b1-4)GlcNAc(b1-4)[Fuc(a1-6)]GlcNAc
# How it was run: as §1
# [28] = target: Fuc(a1-2)[GalNAc(a1-3)]Gal(b1-3)GlcNAc(b1-3)GalNAc
# How it was run: as §1
# [29] = target: Fuc(a1-2)[GalNAc(a1-3)]Gal(b1-3)GlcNAc(b1-6)GalNAc
# How it was run: as §1
# [30] = target: Fuc(a1-2)[GalNAc(a1-3)]Gal(b1-4)Glc
# How it was run: as §1
# [31] = target: Fuc(a1-2)[GalNAc(a1-3)]Gal(b1-4)GlcNAc
# How it was run: as §1
# [32] = target: Fuc(a1-2)[GalNAc(a1-3)]Gal(b1-4)GlcNAc(b1-2)Man
# How it was run: as §1
# [33] = target: Fuc(a1-2)[GalNAc(a1-3)]Gal(b1-4)GlcNAc(b1-2)Man(a1-3)[Fuc(a1-2)[GalNAc(a1-3)]Gal(b1-4)GlcNAc(b1-2)Man(a1-6)]Man(b1-4)GlcNAc(b1-4)GlcNAc
# How it was run: as §1
# [34] = target: Fuc(a1-2)[GalNAc(a1-3)]Gal(b1-4)GlcNAc(b1-2)Man(a1-3)[Fuc(a1-2)[GalNAc(a1-3)]Gal(b1-4)GlcNAc(b1-2)Man(a1-6)]Man(b1-4)GlcNAc(b1-4)[Fuc(a1-6)]GlcNAc
# How it was run: as §1
# [35] = target: Fuc(a1-2)[GalNAc(a1-3)]Gal(b1-4)GlcNAc(b1-3)Gal(b1-4)GlcNAc
# How it was run: as §1
# [36] = target: Fuc(a1-2)[GalNAc(a1-3)]Gal(b1-4)GlcNAc(b1-3)Gal(b1-4)GlcNAc(b1-3)Gal(b1-4)GlcNAc
# How it was run: as §1
# [37] = target: Fuc(a1-2)[GalNAc(a1-3)]Gal(b1-4)GlcNAc(b1-3)GalNAc
# How it was run: as §1
# [38] = target: Fuc(a1-2)[GalNAc(a1-3)]Gal(b1-4)GlcNAc(b1-3)[Fuc(a1-2)[GalNAc(a1-3)]Gal(b1-4)GlcNAc(b1-6)]GalNAc
# How it was run: as §1
# [39] = target: Fuc(a1-2)[GalNAc(a1-3)]Gal(b1-4)GlcNAc(b1-6)GalNAc
# How it was run: as §1
# [40] = target: Fuc(a1-2)[GalNAc(a1-3)]Gal(b1-4)[Fuc(a1-3)]GlcNAc
# How it was run: as §1
# [41] = target: Fuc(a1-2)[GalNAc(a1-3)]Gal(b1-4)[Fuc(a1-3)]GlcNAc(b1-3)GalNAc
# How it was run: as §1
# [42] = target: Fuc(a1-2)[GalNAc(a1-4)]Gal(b1-4)GlcNAc
# How it was run: as §1
# [43] = target: Fuc(a1-2)[GalNAc(b1-3)]Gal
# How it was run: as §1
binder,measurement,setting,value
GS7807G-bfa-506-18-506 (Bacteroides fragilis) (protein) ASCDKFDEINTDPDATTKVTSSLLATGLLLDITSSSASKSFIYDELLAKQMAWGESMEDYQYNVFGRSGFGGYTTLINAQKMVESVSDDNVNAYDGLAHFIKAYKIFYMSMEMGDLPYEEALQGELGLVRPKYNTQKEVMNFILSDLETAYELFSTAKDFDGDPILGGSISKWKKATTAFQLKVLMHLSKKESDADLKVKERFARIVASGSLMESNEDNLQMKYADKANTVYPFHNTNTKHAGYAMLSTMLIDKFKATGDIRMFYYAKPAKAKLNEGVTADSWDAYIGTDPSLPFEQIEKAYATEQYSGFNARYTDYPSGEPVVRLGYAEQNFILAEAAVRGWISGDASAYYKKAIRAHMEFIASNTPDEEVYHHGHPITEEAIAAFLETPAIQLSGEKEEDIEKILTQRYLASFMQHPYDVYYDYRRTGYPVLPINPATNRNTMNDRLPMRWMYPKSESDYNLEHQNEALERQFGGVDDVNKLMWILQ,glycan array binding signal (z-score),[1],-0.202
same,glycan array binding signal (z-score),Fuc(a1-2)Gal6S(b1-4)Glc,-0.128
same,glycan array binding signal (z-score),[2],0.656
same,glycan array binding signal (z-score),Fuc(a1-2)[Gal(a1-3)]Gal,0.293
same,glycan array binding signal (z-score),[3],-0.509
same,glycan array binding signal (z-score),[4],-0.536
same,glycan array binding signal (z-score),[5],-0.967
same,glycan array binding signal (z-score),[6],-0.106
same,glycan array binding signal (z-score),[7],1.27
same,glycan array binding signal (z-score),[8],-0.998
same,glycan array binding signal (z-score),[9],0.558
same,glycan array binding signal (z-score),[10],-0.745
same,glycan array binding signal (z-score),[11],-0.733
same,glycan array binding signal (z-score),[12],-0.104
same,glycan array binding signal (z-score),[13],3.93
same,glycan array binding signal (z-score),[14],-0.543
same,glycan array binding signal (z-score),[15],-0.69
same,glycan array binding signal (z-score),[16],0.293
same,glycan array binding signal (z-score),[17],-0.343
same,glycan array binding signal (z-score),[18],-0.909
same,glycan array binding signal (z-score),[19],0.197
same,glycan array binding signal (z-score),[20],0.639
same,glycan array binding signal (z-score),[21],-0.848
same,glycan array binding signal (z-score),[22],0.227
same,glycan array binding signal (z-score),[23],-0.151
same,glycan array binding signal (z-score),[24],-0.596
same,glycan array binding signal (z-score),[25],-0.659
same,glycan array binding signal (z-score),[26],0.114
same,glycan array binding signal (z-score),[27],-0.493
same,glycan array binding signal (z-score),[28],0.453
same,glycan array binding signal (z-score),[29],-0.032
same,glycan array binding signal (z-score),[30],-0.693
same,glycan array binding signal (z-score),[31],-0.72
same,glycan array binding signal (z-score),[32],-0.111
same,glycan array binding signal (z-score),[33],1.68
same,glycan array binding signal (z-score),[34],-0.285
same,glycan array binding signal (z-score),[35],-0.624
same,glycan array binding signal (z-score),[36],-0.91
same,glycan array binding signal (z-score),[37],-0.487
same,glycan array binding signal (z-score),[38],-0.824
same,glycan array binding signal (z-score),[39],0.383
same,glycan array binding signal (z-score),[40],1.94
same,glycan array binding signal (z-score),[41],1.6
same,glycan array binding signal (z-score),[42],0.464
same,glycan array binding signal (z-score),[43],0.922

# Already shown: entries from further up.
binder,measurement,setting,value
GS7807G-bfa-506-18-506 (Bacteroides fragilis) (protein) ASCDKFDEINTDPDATTKVTSSLLATGLLLDITSSSASKSFIYDELLAKQMAWGESMEDYQYNVFGRSGFGGYTTLINAQKMVESVSDDNVNAYDGLAHFIKAYKIFYMSMEMGDLPYEEALQGELGLVRPKYNTQKEVMNFILSDLETAYELFSTAKDFDGDPILGGSISKWKKATTAFQLKVLMHLSKKESDADLKVKERFARIVASGSLMESNEDNLQMKYADKANTVYPFHNTNTKHAGYAMLSTMLIDKFKATGDIRMFYYAKPAKAKLNEGVTADSWDAYIGTDPSLPFEQIEKAYATEQYSGFNARYTDYPSGEPVVRLGYAEQNFILAEAAVRGWISGDASAYYKKAIRAHMEFIASNTPDEEVYHHGHPITEEAIAAFLETPAIQLSGEKEEDIEKILTQRYLASFMQHPYDVYYDYRRTGYPVLPINPATNRNTMNDRLPMRWMYPKSESDYNLEHQNEALERQFGGVDDVNKLMWILQ,glycan array binding signal (z-score),[33],1.68
same,glycan array binding signal (z-score),[34],-0.285
